To fix the notation:
B1: tRNA (parent)
chain: GUUCCGUUGGCGUAAUGGUAACGCGUCUCCCUCCUAAGGAGAAGACUGCGGGUUCGAGUCCCGUACGGAACG

This sample is rich in variants without activity.

Variants of B1 are the subject of the data set. Description: yeast fitness relative to wild type (ratio to wild type); higher = fitter; tRNA-Arg(CCU), competitive growth, 37 C, YPD. In short, it runs like this: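 Variants of the tRNA-Arg(CCU) gene, chemically synthesised with a 3% per-site mutation rate at 69 sites, were placed at the native genomic locus in Saccharomyces cerevisiae. The pooled strains were competed in YPD at 37°C for 24 hours in six parallel replicates. Gene amplicons from the start population and from each end population were read by 100-nucleotide paired-end sequencing. Darwinian fitness relative to wild type came from changes in genotype frequencies; genotypes needed ≥ 100 starting reads, and estimates < 0.5 were set to 0.5.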
Consider GUUCCGUUAGGGUAAUGGUAACGGGUCUCCCUCCUAAGGAGUAGACUGCGGGUUCGAGUCCCGUACGGAACG, for which the yeast fitness is at most 0.5.

For GUUCCAUUGGCGUAAUGGUAACGUGUCUCCCUCCUAAGGAGAAGACUGCGGGUUCGAAUCCCGUACGGAACG, the yeast fitness worked out at 0.67.

Take GUUCCGUUGGCGUAAUGGUAACGCGUCUCCAUCCUAAGGAGAAGACUGCGGGUUCGAGUGCCGUACAGAACG: the yeast fitness is at most 0.5.

On to GUUCUGUUGGCGUAAUGGUAACGCGUCUCCCUCCUACGGAGAAGAUUGCGGGCUCGAGUCCCGUACGGAACG, for which the yeast fitness was at most 0.5.

In the case of GGUCCGUUGGCGUAAUGGUAACGCGUCUCCCUCCUAAGGAGAAGACUGCGGGUAUGAGUCCCGUACGAUACG, the yeast fitness is at most 0.5.

For GUUCCGUUGGCGUUAUGGUAGCGCGUCUCCCUCCUAAGGAGAUGACUGCGGGUUCGAGUCCCGUACGGAACG, the yeast fitness is at most 0.5.

For the variant GUUCCAUUGGCGUAAUGGUAACGUGUCUCCCUCCUAUGGUGAAGACUGCGGGUUCGAGUCCCGUACGGAACG, the yeast fitness is at most 0.5.

Turning to GUUCCAUUGGCGAAAUGGCAACGCGUCUCCCUCCUAAGGUGAAGACUGCGGGUUCGAGUCCCGUACGGAACG, the yeast fitness was at most 0.5.

With GUUCCCUUGGCGUAAUGGUAACGCGUCUCCCUCCUAAGGAGAAGACUGCGGGUUCCAGUCCCAUACGGAACG, the yeast fitness is at most 0.5.

GUUCUGUUGGCGUAAUGGUAACGCGUCUCCCUCCCUAAGAGAAGAAUGCGGGUACGAGUCCCGUACGGAACG: the yeast fitness was at most 0.5.

In the case of GUUCCGUUGGUGUAAUGCUAACGCGUCUCCCUGCUAAGGAGAAAAGUGCGGGUUCGAGUCCCGUAUGGAACG, the yeast fitness was determined as 0.606.

For the variant GUUGCGUUGGCGUAAUGGUAACGCGUCUCCCUACUAAGGUGAAGACUGCGGGUUCGAGUCCCGUACGAAACG, the yeast fitness was at most 0.5.

In the case of GUUCCGUUGGUGUAAUGGUAACGCGUCUUCCUCCUAAGGAGAAGACUGCGGGUUUGAGUCCCGUACGGAACG, the yeast fitness is at most 0.5.

In the case of GUUCCGUUGGCGUAAUGGUAACGCGUCUCCCUGCUAACGAGAAGACUGCGGGUUCGAGUCCAGUACGGAACG, the yeast fitness is at most 0.5.

For the variant GUUCCGUUGACGUAAAGGUAACGCGUCUCCCUCCUAAGGAGAAGACUGCGGGUUCGAGCCCCGUACGGAACG, the yeast fitness was at most 0.5.

As to GUUCCGUUGGCGUAAUGGUAACGGGUCUCACUCCUAAGGAGAAGACUGCGGGUGCGAGUCCCGUACGGAACG, the yeast fitness was at most 0.5.

On to GUUCCGUUGGCGUAAUGGUAACGCGUCUCCCUCCUAAGGAGAAGACUGCGGGUUCGAAUUCCGUACGGAGCG, for which the yeast fitness is 0.702.

As for GUUCCGUUGGCGUAAUGGUAACGCGCCUCCCUCCUAAGGAGAAGACUGCGGGUUCGAGACCCGUACAGAACG, the yeast fitness was at most 0.5.

Take GUUCCGUUGGCGUAAUGGCAACGCGUCUCGCUCCUAGGGAGAUGACUGCGGGUUCGAGUCCCGUACGGAACG: the yeast fitness was at most 0.5.

GUUCCGUUGGCAGAAUGGCAGCGCGUCUCCCUCCUAAGGAGAAGACUGUGGAUUCGAGGCCCGUACGGAACG: the yeast fitness turned out to be 0.525.

As for GUUCCGUUGGUGUAAUGGUAACGCGUGUCCCUCCUAAGGAGAACACUGCGGGUUCGAGUCCCGUACGGAACG, the yeast fitness is at most 0.5.

For the variant GUUCCGUUGGAGUAAUGGUAACGCGUCUCUGUCCUAAGGAGAAGACUGCGGGUUCGAGUCCCGUACGGAACG, the yeast fitness was at most 0.5.

With GUUCCGUUGGCGUAAUGGUAACGGGUCCCCCUCCUAAGGAGAAGACUGCGGGUUCGAGUCCGGUACAGAACG, the yeast fitness is at most 0.5.

Turning to GUUCCGUUGGCGUAGUGGUAACGCGUAUCCCUCCUAAGGAGAAGACUGCGGGUUGGAGUCCCGUACGGAACG, the yeast fitness is at most 0.5.

For GUUCCGUUGGCGUGAUGGUAACGCGUCUCCCUCCUAAGGAGAAGACUGCGGGUUCGACUCCAGUAGGGAACG, the yeast fitness was at most 0.5.

As for GUUCCGUUGGCGUAAUGGUACCGGGUCUCCCACCUAAGGAGCAGACUGCGGGUUCGACUCCCGUACGGAACG, the yeast fitness was at most 0.5.

GUUCCGUUGGCGUAAUCGUAACGGGUCUCCUUCCUAAGGAGAAGACUGCGGGUUCGAGUCCCGUACGGAACG: the yeast fitness was at most 0.5.

Consider GUUCCGUUGGCGUACUGGUAACGCGUCUCCCUCCUCAGGAGAAGACUACGGGUUCGAGUCCCGUACAGAACG, for which the yeast fitness came out at 0.541.

As to GUUCCGUUGGCGUAAUGGUAACGCGUCUCCUUCCAAGGGCGAAGACCGCGGGUUCGAGUCCCGUACGCAACG, the yeast fitness was at most 0.5.

Consider GUUACGUUGGCGUACUGGUAACGCGUGUCCCUCCUAAGGAGAAGACUGCGGGUUCGAGUCCCGUGCGGAACG, for which the yeast fitness is at most 0.5.

Consider GUUCCGUUGGAGUAAUGGUAACGCGUGUCCCUCCUAAGGAGACGACUGCGGGUUCGAGUGCCGUACGGAACG, for which the yeast fitness is at most 0.5.

Take GUUCAGUUGGCGUAAUGGUAACGGGUCUCCCUCCUAAGGAGAAGCCUGCGGGUUCGAGUCCCGUACGGAACG: the yeast fitness was at most 0.5.

On to GUUCCGUUGGCGUAAUGGUAACCCGUCUCCCUCCUAAGGAGAAGACUGCGGGUUCGGGUCCCGUACGGAGCG, for which the yeast fitness was at most 0.5.

In the case of GUACCGUUCGCGUAAUGGUAACGCGUCUCCCUCCUAAGGAGAAGACUGCGGGUUCGAGUCCCGUACGGAACG, the yeast fitness is 0.567.

As to GUUCCGUUGGCGUAAUGGUAACGCGUCUCCUUCCUAAGGACACGACUGCGGGUUCGAGUGCCGUACGGAACG, the yeast fitness was at most 0.5.

For GGUCCGUUGGCGAAAUGGUAACGCGUCUCCCUCCUAAGGAGAAGACUGCGGGUUCGAGUUCCGUACGGAACG, the yeast fitness is 0.816.

For the variant GUUCCGUUGGCGUAAUGGUAACGCGUGUCCCUCCUAAGGAAAAGACUGCGGGUUCGAGUCCCGUACGGAACG, the yeast fitness came to 1.03.

With GUUCCGUUCGCGUAAUGGUAACGCGUCUCCGUCCUAAGGAGCAGACUGCGGGUUUGAGUCCCGUACGAAACG, the yeast fitness is at most 0.5.

For the origin of these results see the RNAGym collection of RNA variant scans (doi:10.1126/science.aae0568).
